Numbering of substitutions follows the chain as printed. No constants are given. Whether binding was seen depends on the method and setting. Some entries that bind do so weakly or less than the wild type. Each block holds one binder with its values, some of them ahead of it.
Assays:
[1] = target: human PD-1 protein (construct not stated) (human) (UniProt Q15116); experiment: ELISA, coated PD-1 at 1 ug/ml
[2] = target: mouse PD-1 protein (construct not stated) (mouse) (UniProt Q02242); experiment: ELISA, coated PD-1 at 1 ug/ml

Protein sequences, listed by entry. Tags and fused reporters are not part of them. Lines headed by an entry give the natural chain unless they say otherwise; changes in a name come on top. Residues count along the entry.
UniProt Q15116: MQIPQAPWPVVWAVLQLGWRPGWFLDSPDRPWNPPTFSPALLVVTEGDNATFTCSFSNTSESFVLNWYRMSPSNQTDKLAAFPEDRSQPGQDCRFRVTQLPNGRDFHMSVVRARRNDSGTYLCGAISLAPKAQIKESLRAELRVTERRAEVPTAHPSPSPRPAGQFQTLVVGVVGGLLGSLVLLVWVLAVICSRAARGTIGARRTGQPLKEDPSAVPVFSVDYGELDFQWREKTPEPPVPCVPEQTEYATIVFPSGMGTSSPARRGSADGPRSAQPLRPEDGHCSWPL
UniProt Q02242, residues 25-167: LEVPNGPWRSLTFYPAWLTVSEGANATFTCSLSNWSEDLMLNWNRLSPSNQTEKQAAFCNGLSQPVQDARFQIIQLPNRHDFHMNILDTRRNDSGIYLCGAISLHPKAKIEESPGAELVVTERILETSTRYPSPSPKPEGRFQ

B1: 2E5 (antibody, V domains shown)
VH: QVQLVQSGAEVKKPGSSVKVSCKASGFTFTTYYISWVRQAPGQGLEYLGYINMGSGGTNYNEKFKGRVTITADKSTSTAYMELSSLRSEDTAVYYCAIIGYFDYWGQGTMVTVSS
VL: DVVMTQSPLSLPVTLGQPASISCRSSQSLLDSDGGTYLYWFQQRPGQSPRRLIYLVSTLGSGVPDRFSGSGSGTDFTLKISRVEAEDVGVYYCMQLTHWPYTFGQGTKLEIK
binding [1]: binds
binding [2]: binds

B3: 1H6 (antibody, V domains shown)
VH: B1 VH with I99L
VL: B1 VL
binding [1]: binds
binding [2]: binds

Other lines, results leading:

binding [1]: binds
binding [2]: binds
B2: 2G4 (antibody, V domains shown)
VH: B1 VH
VL: B1 VL with G35S

binding [1]: binds
binding [2]: binds
B4: 2C2 (antibody, V domains shown)
VH: B1 VH
VL: B1 VL with G35A

— patent US20260274954A1 (published 2026)
